{"source": "patent US7807662B2", "about": "“Platinum IV complex inhibitor” (University of South Florida, priority 2004, dated 2010)", "test_system": "hSIE oligonucleotide probe", "assay": "Integrity of IS3 295-treated hSIE oligonucleotide probe", "data": [{"smiles": "CCC(O)N1CCN(C(O)CC)CC1", "note": "(centres unmarked) [IS3 295]", "values": [{"measurement": "overall integrity of treated hSIE oligonucleotide", "setting": "oligonucleotide melting and re-annealing study", "value": "preserved"}, {"measurement": "in vitro binding activity of Stat3 to compound-treated hSIE probe", "setting": "oligonucleotide treated 30 minutes, then radiolabeled", "value": "no observable effect"}]}]}
